According to PMC8179929:
Results are given in words; binding and its absence hold for the method and conditions named. Binding seen in cells or lysates may run through a third protein. Here binding means that the protein was enriched with, or labelled near, the bait; the list need not be complete. Sequences can lack the tags named with a protein.

Chains of the proteins cited; added tags and fusions are not shown.
UniProt Q9UPY3: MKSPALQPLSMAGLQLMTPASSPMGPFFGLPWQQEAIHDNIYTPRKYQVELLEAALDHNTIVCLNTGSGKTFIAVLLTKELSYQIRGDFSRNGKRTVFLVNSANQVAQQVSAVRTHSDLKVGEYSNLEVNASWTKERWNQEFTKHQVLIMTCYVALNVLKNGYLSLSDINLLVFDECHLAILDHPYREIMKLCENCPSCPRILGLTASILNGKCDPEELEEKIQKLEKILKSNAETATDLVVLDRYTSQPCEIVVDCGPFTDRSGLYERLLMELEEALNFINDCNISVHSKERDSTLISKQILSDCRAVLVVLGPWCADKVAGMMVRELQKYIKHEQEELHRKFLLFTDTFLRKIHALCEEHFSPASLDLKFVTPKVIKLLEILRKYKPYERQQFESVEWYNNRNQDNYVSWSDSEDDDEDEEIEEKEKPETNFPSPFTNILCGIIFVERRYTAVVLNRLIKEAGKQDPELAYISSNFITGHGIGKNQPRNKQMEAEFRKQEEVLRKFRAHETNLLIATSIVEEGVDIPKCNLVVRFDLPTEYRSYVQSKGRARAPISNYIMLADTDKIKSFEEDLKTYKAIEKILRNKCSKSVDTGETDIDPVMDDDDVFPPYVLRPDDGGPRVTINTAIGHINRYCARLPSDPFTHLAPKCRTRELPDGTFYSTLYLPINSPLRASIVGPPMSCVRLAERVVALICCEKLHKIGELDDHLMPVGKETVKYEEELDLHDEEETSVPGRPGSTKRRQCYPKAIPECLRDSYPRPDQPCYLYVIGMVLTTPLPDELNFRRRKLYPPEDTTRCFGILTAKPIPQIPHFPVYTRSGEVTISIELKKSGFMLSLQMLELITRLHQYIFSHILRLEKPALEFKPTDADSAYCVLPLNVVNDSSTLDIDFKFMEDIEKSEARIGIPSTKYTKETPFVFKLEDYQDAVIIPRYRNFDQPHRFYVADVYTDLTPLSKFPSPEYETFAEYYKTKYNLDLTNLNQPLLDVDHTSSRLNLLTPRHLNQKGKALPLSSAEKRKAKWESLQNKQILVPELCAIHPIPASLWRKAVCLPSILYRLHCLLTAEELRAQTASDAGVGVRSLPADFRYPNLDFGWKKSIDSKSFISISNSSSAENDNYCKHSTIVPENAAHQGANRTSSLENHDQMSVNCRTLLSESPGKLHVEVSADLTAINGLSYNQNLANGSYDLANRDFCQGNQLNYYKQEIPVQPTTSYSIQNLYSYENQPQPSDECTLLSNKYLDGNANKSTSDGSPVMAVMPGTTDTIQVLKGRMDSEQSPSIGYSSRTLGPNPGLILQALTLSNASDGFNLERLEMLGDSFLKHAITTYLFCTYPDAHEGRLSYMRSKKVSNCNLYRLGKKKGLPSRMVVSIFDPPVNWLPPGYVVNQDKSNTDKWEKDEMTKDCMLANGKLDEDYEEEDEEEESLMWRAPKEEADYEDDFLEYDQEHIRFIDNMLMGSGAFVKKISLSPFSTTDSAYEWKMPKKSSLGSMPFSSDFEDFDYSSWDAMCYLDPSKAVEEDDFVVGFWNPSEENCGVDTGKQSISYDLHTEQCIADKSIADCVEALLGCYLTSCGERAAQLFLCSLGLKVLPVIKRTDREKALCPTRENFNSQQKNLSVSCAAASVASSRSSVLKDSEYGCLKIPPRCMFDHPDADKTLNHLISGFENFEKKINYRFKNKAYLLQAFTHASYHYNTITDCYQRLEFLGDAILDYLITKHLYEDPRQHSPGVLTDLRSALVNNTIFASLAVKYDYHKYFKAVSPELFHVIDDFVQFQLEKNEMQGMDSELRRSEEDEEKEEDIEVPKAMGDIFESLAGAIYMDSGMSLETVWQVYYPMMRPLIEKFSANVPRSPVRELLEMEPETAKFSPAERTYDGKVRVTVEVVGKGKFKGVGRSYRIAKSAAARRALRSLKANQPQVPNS
UniProt Q15717: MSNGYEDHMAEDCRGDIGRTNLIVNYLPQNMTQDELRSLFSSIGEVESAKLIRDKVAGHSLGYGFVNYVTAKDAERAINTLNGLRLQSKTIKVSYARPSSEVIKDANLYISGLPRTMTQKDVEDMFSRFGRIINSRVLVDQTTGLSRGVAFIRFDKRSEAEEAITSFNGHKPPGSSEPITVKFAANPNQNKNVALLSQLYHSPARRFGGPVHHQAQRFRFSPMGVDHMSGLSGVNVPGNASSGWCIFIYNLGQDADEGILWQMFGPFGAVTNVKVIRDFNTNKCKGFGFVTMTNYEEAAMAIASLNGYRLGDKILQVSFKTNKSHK
UniProt P12956: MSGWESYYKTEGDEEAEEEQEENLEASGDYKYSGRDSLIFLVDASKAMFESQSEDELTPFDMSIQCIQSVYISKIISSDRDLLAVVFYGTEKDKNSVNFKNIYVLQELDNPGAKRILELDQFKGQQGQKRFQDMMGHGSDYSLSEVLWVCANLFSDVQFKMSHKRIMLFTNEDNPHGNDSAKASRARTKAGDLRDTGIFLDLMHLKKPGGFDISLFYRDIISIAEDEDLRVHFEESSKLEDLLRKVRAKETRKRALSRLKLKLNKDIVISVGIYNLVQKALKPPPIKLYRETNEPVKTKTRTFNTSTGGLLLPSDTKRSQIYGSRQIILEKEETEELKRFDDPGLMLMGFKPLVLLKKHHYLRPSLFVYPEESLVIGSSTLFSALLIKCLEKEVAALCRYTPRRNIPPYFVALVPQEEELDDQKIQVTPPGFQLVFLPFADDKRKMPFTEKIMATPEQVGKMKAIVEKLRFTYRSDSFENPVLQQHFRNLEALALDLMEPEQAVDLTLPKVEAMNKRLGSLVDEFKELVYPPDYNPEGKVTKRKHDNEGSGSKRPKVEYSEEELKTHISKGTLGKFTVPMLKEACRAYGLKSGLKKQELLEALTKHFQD
UniProt P09874: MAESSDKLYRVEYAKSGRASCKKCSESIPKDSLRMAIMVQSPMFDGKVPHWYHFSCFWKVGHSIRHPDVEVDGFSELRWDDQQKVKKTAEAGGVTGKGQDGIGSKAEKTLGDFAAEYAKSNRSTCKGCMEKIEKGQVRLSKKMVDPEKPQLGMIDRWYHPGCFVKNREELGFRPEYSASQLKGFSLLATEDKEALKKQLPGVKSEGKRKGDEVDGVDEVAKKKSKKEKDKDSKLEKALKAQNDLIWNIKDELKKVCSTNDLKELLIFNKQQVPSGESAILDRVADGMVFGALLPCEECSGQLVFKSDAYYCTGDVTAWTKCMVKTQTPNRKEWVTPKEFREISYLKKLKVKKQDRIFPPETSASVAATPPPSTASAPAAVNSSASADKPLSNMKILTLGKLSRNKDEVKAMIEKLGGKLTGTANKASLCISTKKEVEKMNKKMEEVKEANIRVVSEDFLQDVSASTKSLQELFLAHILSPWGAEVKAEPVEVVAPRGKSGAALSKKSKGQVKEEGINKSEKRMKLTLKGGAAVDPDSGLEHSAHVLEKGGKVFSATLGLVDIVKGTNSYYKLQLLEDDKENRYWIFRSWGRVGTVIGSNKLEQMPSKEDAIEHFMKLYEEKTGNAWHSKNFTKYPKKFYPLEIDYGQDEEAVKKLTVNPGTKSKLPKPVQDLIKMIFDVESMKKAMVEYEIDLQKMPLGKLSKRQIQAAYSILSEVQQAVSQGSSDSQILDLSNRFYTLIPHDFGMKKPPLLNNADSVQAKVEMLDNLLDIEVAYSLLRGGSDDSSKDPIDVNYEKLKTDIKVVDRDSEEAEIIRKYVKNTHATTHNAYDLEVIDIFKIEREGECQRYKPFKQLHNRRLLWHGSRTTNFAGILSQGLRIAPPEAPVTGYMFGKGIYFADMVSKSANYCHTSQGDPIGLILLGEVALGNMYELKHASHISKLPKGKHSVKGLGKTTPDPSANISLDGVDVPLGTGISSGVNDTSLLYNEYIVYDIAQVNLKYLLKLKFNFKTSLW

Target: T1, full-length Pirh2 (Pirh2-GST) (human) (UniProt Q96PM5)
T1 sequence: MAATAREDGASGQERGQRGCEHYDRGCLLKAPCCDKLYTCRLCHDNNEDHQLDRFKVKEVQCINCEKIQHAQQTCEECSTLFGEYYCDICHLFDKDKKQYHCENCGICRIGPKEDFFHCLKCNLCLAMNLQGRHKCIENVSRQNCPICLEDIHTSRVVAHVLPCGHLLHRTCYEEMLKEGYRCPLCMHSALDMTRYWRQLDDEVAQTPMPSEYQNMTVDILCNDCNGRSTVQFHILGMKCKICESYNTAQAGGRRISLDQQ
Test: affinity purification with mass spectrometry; Pirh2-GST (GST as control) immobilised on glutathione-sepharose beads, incubated with HEK293T cell extract at 4 °C for 3 h, washed with PBS; retained proteins identified by LC-MS/MS; only the target purified

binding, binds:
Dicer, endogenous in HEK293T (from UniProt Q9UPY3 1-1922)
HuR (ELAVL1), endogenous in HEK293T (from UniProt Q15717 1-326)
Ku70, endogenous in HEK293T (from UniProt P12956 1-609)
PARP1, endogenous in HEK293T (from UniProt P09874 1-1014)
